Experimental findings from PubChem BioAssay AID224 (DTP/NCI, 2004) are described below.

The list is a part of this screen's results and no random one: it is rich in T/C values a quarter to a half above the control, in often repeated tests (any T/C) and in doses without a T/C. Other doses and runs of a compound stand elsewhere. T/C gives the treated animals as a percentage of the vehicle group. Some entries give survivors of the animals treated and no T/C: the source files T/C as zero there, which appears to mark a toxic dose or a test without result, not a measured value. Some survivor counts are full or nearly so, which does not show that the dose was tolerated: the source hardly ever lists a survival T/C far under the control, and the zero likely stands for such cases as well. Survivors were counted at the toxicity check, usually on the fifth day, unless a day is given; later deaths do not show. Schedules are NCI's codes, taken here to give the interval after Q, in days (D) or hours (H), and the number of doses after X. Some schedule codes hold Z or #, which are not explained here. Some entries were tested several times; the results are listed from low to high. Some structures stand for samples that the source files as different forms (salt, stereo form or complex); doses refer to the form tested. Where survival is the endpoint, this PubChem deposit counts one and a half times the control or more as active, and values a quarter to a half above the control carry no call in these data; other NCI protocols may use other cut-offs.

This assay concerns P335 leukemia ip, BDF1 mice, survival T/C %. The assay can be described thus: NCI In Vivo Anticancer Drug Screen. Data for tumor model P335 Leukemia (intraperitoneal) in B6D2F1 (BDF1) mice. To be noted: T/C endpoint: mean survival time, higher T/C = longer survival. As for the experimental part:
The antitumor activity of compounds was measured in mice bearing transplantable tumors. Survival or tumor size were measured and the results are expressed as the measurement made in the treated group (T) divided by the measurement made in the vehicle treated control group (C). The tumor model used in this assay is P335 Leukemia (intraperitoneal) in B6D2F1 (BDF1) mice

The mark [1] stands for this setting: dose: 0.5 mg/kg/injection, schedule: Q01DX Z (ip), vehicle: carboxymethylcellulose (CMC).
The mark [2] stands for this setting: dose: 1.0 mg/kg/injection, schedule: Q01DX Z (ip), vehicle: carboxymethylcellulose (CMC).
Setting [3] is: dose: 2.0 mg/kg/injection, schedule: Q01DX Z (ip), vehicle: carboxymethylcellulose (CMC).
The mark [4] stands for this setting: dose: 32.0 mg/kg/injection, schedule: Q01DX Z (ip), vehicle: carboxymethylcellulose (CMC).
Where [5] appears, read: dose: 200.0 mg/kg/injection, schedule: Q01DX Z (ip), vehicle: carboxymethylcellulose (CMC).
Setting [6] is: dose: 400.0 mg/kg/injection, schedule: Q01DX Z (ip), vehicle: carboxymethylcellulose (CMC).
Where [7] appears, read: dose: 8.0 mg/kg/injection, schedule: Q01DX Z (ip), vehicle: carboxymethylcellulose (CMC).
The mark [8] stands for this setting: dose: 25.0 mg/kg/injection, schedule: Q01DX Z (ip), vehicle: carboxymethylcellulose (CMC).
Where [9] appears, read: dose: 100.0 mg/kg/injection, schedule: Q01DX Z (ip), vehicle: carboxymethylcellulose (CMC).

As to `N[C@@H](Cc1ccc(N(CCCl)CCCl)cc1)C(=O)O`, the T/C (dose: 0.62 mg/kg/injection, schedule: Q01DX Z (ip), vehicle: saline) is 139 % of control and the T/C (dose: 1.25 mg/kg/injection, schedule: Q01DX Z (ip), vehicle: saline) is 148 % of control. Moreover, under “dose: 10.0 mg/kg/injection, schedule: Q01DX Z (ip), vehicle: saline”, the survivor count is 6 of 6.
For `O=C(Nc1ccc(C2=NCCCN2)cc1)c1ccc(NC(=O)c2ccc(C3=NCCCN3)cc2)cc1`, the survivor count reads like this: (dose: 0.25 mg/kg/injection, schedule: Q01DX Z (ip), vehicle: carboxymethylcellulose (CMC)) 0 of 6; under setting [1], 4 of 6; under setting [2], 1 of 6; under setting [4], 3 of 6; (dose: 62.5 mg/kg/injection, schedule: Q01DX Z (ip), vehicle: carboxymethylcellulose (CMC)) 2 of 6; (dose: 125.0 mg/kg/injection, schedule: Q01DX Z (ip), vehicle: carboxymethylcellulose (CMC)) 1 of 6. Besides, the survivor count (dose: 250.0 mg/kg/injection, schedule: Q01DX Z (ip), vehicle: carboxymethylcellulose (CMC)) is listed as 0 of 6 and the survivor count (dose: 500.0 mg/kg/injection, schedule: Q01DX Z (ip), vehicle: carboxymethylcellulose (CMC)) is given as 0 of 6. Further, the T/C under setting [3] was 147 % of control.
On to `Nc1nc(=S)c2ncn(C3OC(CO)C(O)C3O)c2[nH]1` (stereo unspecified), for which the survivor count (dose: 0.08 mg/kg/injection, schedule: Q01DX Z (ip), vehicle: carboxymethylcellulose (CMC)) is listed as 6 of 6.
Take `O=c1[nH]c(=O)n(C2CC(O)C(CO)O2)cc1I` (stereo unspecified): the survivor count is, setting by setting: (dose: 900.0 mg/kg/injection, schedule: Q01DX Z (ip), vehicle: carboxymethylcellulose (CMC)) 6 of 6; (dose: 1800.0 mg/kg/injection, schedule: Q01DX Z (ip), vehicle: carboxymethylcellulose (CMC)) 1 of 6.
With `O[C@H](CN1CC1)[C@@H](O)CN1CC1`, the survivor count reads like this: (dose: 31.0 micrograms/kg/injection, schedule: Q01DX Z (ip), vehicle: carboxymethylcellulose (CMC)) 6 of 6; (dose: 63.0 micrograms/kg/injection, schedule: Q01DX Z (ip), vehicle: carboxymethylcellulose (CMC)) 6 of 6; (dose: 125.0 micrograms/kg/injection, schedule: Q01DX Z (ip), vehicle: carboxymethylcellulose (CMC)) 6 of 6; (dose: 250.0 micrograms/kg/injection, schedule: Q01DX Z (ip), vehicle: carboxymethylcellulose (CMC)) 6 of 6; (dose: 500.0 micrograms/kg/injection, schedule: Q01DX Z (ip), vehicle: carboxymethylcellulose (CMC)) 1 of 6.
On to `CC(=O)O[C@]1(C(C)=O)CC[C@H]2[C@@H]3C[C@H](C)C4=CC(=O)C=C[C@]4(C)[C@@]3(F)[C@@H](O)C[C@@]21C`, for which the survivor count is reported as 6 of 6 (dose: 10.0 mg/kg/injection, schedule: Q01DX Z (sc), vehicle: steroid suspending solution); 6 of 6 (dose: 40.0 mg/kg/injection, schedule: Q01DX Z (sc), vehicle: steroid suspending solution); 6 of 6 (dose: 80.0 mg/kg/injection, schedule: Q01DX Z (sc), vehicle: steroid suspending solution).
As to `CCOC(N)=O`, the T/C (dose: 23.43 mg/kg/injection, schedule: Q01DX Z (ip), vehicle: saline) is 131 % of control and the T/C (dose: 375.0 mg/kg/injection, schedule: Q01DX Z (ip), vehicle: saline) was 125 % of control. Besides, the survivor count (dose: 1500.0 mg/kg/injection, schedule: Q01DX Z (ip), vehicle: saline) is on record as 4 of 6.
Consider `N#CCSc1ncnc2nc[nH]c12`, for which the survivor count (dose: 25.0 mg/kg/injection, schedule: Q01DX Z (ip), vehicle: methylcellulose (MC)) is 6 of 6; the survivor count (dose: 50.0 mg/kg/injection, schedule: Q01DX Z (ip), vehicle: methylcellulose (MC)) is on record as 6 of 6; the survivor count (dose: 100.0 mg/kg/injection, schedule: Q01DX Z (ip), vehicle: methylcellulose (MC)) is listed as 6 of 6; the survivor count under setting [5] was 2 of 6; the survivor count under setting [6] is listed as 0 of 6.
On to `O=c1cnn(C2OC(CO)C(O)C2O)c(=O)[nH]1` (stereo unspecified), for which, for the setting “dose: 4.0 mg/kg/injection, schedule: Q01DX Z (ip), vehicle: water”, the survivor count was 5 of 6. Moreover, the T/C (dose: 31.25 mg/kg/injection, schedule: Q01DX Z (ip), vehicle: water) is 134 % of control; the T/C (dose: 62.5 mg/kg/injection, schedule: Q01DX Z (ip), vehicle: water) is 132 % of control; the T/C (dose: 125.0 mg/kg/injection, schedule: Q01DX Z (ip), vehicle: water) is 125 and 148 % of control.
`Nc1nc(=S)c2[nH]cnc2[nH]1`: the survivor count is given as 6 of 6 under setting [7]; 6 of 6 (dose: 16.0 mg/kg/injection, schedule: Q01DX Z (ip), vehicle: carboxymethylcellulose (CMC)); 2 of 6 under setting [4].
As for `NC(=O)N(CCCl)N=O`, the T/C under setting [1] is 132 % of control. Further, the survivor count is recorded as 6 of 6 under setting [2]; 6 of 6 under setting [3]; 6 of 6 (dose: 4.0 mg/kg/injection, schedule: Q01DX Z (ip), vehicle: carboxymethylcellulose (CMC)); 6 of 6 under setting [7].
As for `CSc1ncnc2c1ncn2C1OC(CO)C(O)C1O` (stereo unspecified), the T/C under setting [8] was 132 % of control. The survivor count under setting [9] was 6 of 6.
In the case of `Cn1cnc([N+](=O)[O-])c1Sc1nc(N)nc2nc[nH]c12`, the T/C is 129 % of control under setting [1], 129 % of control under setting [2] and 147 % of control under setting [3].
With `CN(C)c1ccc(/C=C/c2ccnc3ccccc23)cc1`, the survivor count reads like this: (dose: 6.2 mg/kg/injection, schedule: Q01DX Z (ip), vehicle: water) 6 of 6; (dose: 12.5 mg/kg/injection, schedule: Q01DX Z (ip), vehicle: carboxymethylcellulose (CMC)) 6 of 6; (dose: 12.5 mg/kg/injection, schedule: Q01DX Z (ip), vehicle: water) 6 of 6; under setting [8], 6 of 6; (dose: 25.0 mg/kg/injection, schedule: Q01DX Z (ip), vehicle: water) 6 of 6; (dose: 50.0 mg/kg/injection, schedule: Q01DX Z (ip), vehicle: carboxymethylcellulose (CMC)) 6 of 6. The survivor count runs as follows: under setting [9], 3 of 6 and 6 of 6; under setting [5], 1 of 6; under setting [6], 0 of 6.
As to `CC/C(=C(/CC)c1ccc(O)cc1)c1ccc(O)cc1`, the T/C (dose: 31.25 mg/kg/injection, schedule: Q01DX Z (sc), vehicle: steroid suspending solution) was 131 % of control. Moreover, the survivor count reads like this: (dose: 62.5 mg/kg/injection, schedule: Q01DX Z (sc), vehicle: steroid suspending solution) 3 of 6; (dose: 125.0 mg/kg/injection, schedule: Q01DX Z (sc), vehicle: steroid suspending solution) 4 of 6 and 5 of 6; (dose: 250.0 mg/kg/injection, schedule: Q01DX Z (sc), vehicle: steroid suspending solution) 6 of 6; (dose: 500.0 mg/kg/injection, schedule: Q01DX Z (sc), vehicle: steroid suspending solution) 5 of 6; (dose: 1000.0 mg/kg/injection, schedule: Q01DX Z (sc), vehicle: steroid suspending solution) 1 of 6.
On to `O=c1[nH]cc(F)c(=O)[nH]1`, for which the T/C (dose: 6.25 mg/kg/injection, schedule: Q01DX Z (ip), vehicle: saline) was 138 % of control and the T/C (dose: 25.0 mg/kg/injection, schedule: Q01DX Z (ip), vehicle: saline) is 127 % of control. In addition, the survivor count (dose: 200.0 mg/kg/injection, schedule: Q01DX Z (ip), vehicle: saline) is given as 6 of 6.
